Experimental findings from paper PMC12223775 are described below.

Results are given in words; binding and its absence hold for the method and conditions named. Binding seen in cells or lysates may run through a third protein. Binding calls can cover weak binding; strength is not graded here. Sequences can lack the tags named with a protein.

This experiment deals with TBD domain of YAP, GFP-fused truncation. Briefly: co-IP; co-IP of GFP-fused YAP truncations and Myc-tagged USP15 mutants from transfected cells (anti-GFP, anti-myc-tag), western blotting; procedure referred to a previous study. (In general: A western blot detects proteins with antibodies after separation by electrophoresis.)

B1: Myc-tagged USP15 (enzyme, UniProt Q9Y4E8-2 1-952)
chain: MAEGGAADLDTQRSDIATLLKTSLRKGDTWYLVDSRWFKQWKKYVGFDSWDKYQMGDQNVYPGPIDNSGLLKDGDAQSLKEHLIDELDYILLPTEGWNKLVSWYTLMEGQEPIARKVVEQGMFVKHCKVEVYLTELKLCENGNMNNVVTRRFSKADTIDTIEKEIRKIFSIPDEKETRLWNKYMSNTFEPLNKPDSTIQDAGLYQGQVLVIEQKNEDGTWPRGPSTPNVKNSNYCLPSYTAYKNYDYSEPGRNNEQPGLCGLSNLGNTCFMNSAIQCLSNTPPLTEYFLNDKYQEELNFDNPLGMRGEIAKSYAELIKQMWSGKFSYVTPRAFKTQVGRFAPQFSGYQQQDCQELLAFLLDGLHEDLNRIRKKPYIQLKDADGRPDKVVAEEAWENHLKRNDSIIVDIFHGLFKSTLVCPECAKISVTFDPFCYLTLPLPMKKERTLEVYLVRMDPLTKPMQYKVVVPKIGNILDLCTALSALSGIPADKMIVTDIYNHRFHRIFAMDENLSSIMERDDIYVFEININRTEDTEHVIIPVCLREKFRHSSYTHHTGSSLFGQPFLMAVPRNNTEDKLYNLLLLRMCRYVKISTETEETEGSLHCCKDQNINGNGPNGIHEEGSPSEMETDEPDDESSQDQELPSENENSQSEDSVGGDNDSENGLCTEDTCKGQLTGHKKRLFTFQFNNLGNTDINYIKDDTRHIRFDDRQLRLDERSFLALDWDPDLKKRYFDENAAEDFEKHESVEYKPPKKPFVKLKDCIELFTTKEKLGAEDPWYCPNCKEHQQATKKLDLWSLPPVLVVHLKRFSYSRYMRDKLDTLVDFPINDLDMSEFLINPNAGPCRYNLIAVSNHYGGMGGGHYTAFAKNKDDGKWYYFDDSSVSTASEDQIVSKAAYVLFYQRQDTFSGTGFFPLDRETKGASAATGIPLESDEDSNDNDNDIENENCMHTN
As for B1, the binding result was “binds”.
